Taken from: PubChem BioAssay AID1259254 (NCATS, 2017)
Here is an unselected part of about 59,000 deposited reagents. About 1,550 of all reagents (2.6%) were called active. 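G2 share is only a proxy for re-replication; each gene was hit by three separate siRNAs, and active genes were retested.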 Raw values are not corrected between plates. A number with no mark means an inactive call. The numbers tell different reagents against one gene apart. Not stated in the record: the amount of reagent.

- Assay: 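Finding genes that stop cells copying their DNA twice in one cycle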 (primary screen)
- Cells: human HCT116 colorectal cancer cells
- Reagent: single siRNA against human genes
- Timing: 3 days
- Detection: 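Nuclei stained with Hoechst and imaged; cell-cycle phase assigned by DNA content; G2 share scaled per plate, non-targeting siRNA 0%, GMNN siRNA 100%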
- Reading the numbers: G2 robust z-score and G2 cells, % of GMNN control: higher = more G2 cells, more excess DNA replication; raw share of cells in G2: higher = larger share of cells with G2 DNA content
- Active means: 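Active siRNAs have a G2 robust z of 5 or more median absolute deviations over the median, which in these data means about 38% or higher of GMNN control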

| target | reagent no. | G2 robust z-score | G2 cells, % of GMNN control | raw share of cells in G2 (%) |
| --- | --- | --- | --- | --- |
| TNR (tenascin R) | 1 | 2.19 | 18.4 | 11.1 |
| TNR (tenascin R) | 2 | -0.33 | 0.644 | 5.87 |
| TNR (tenascin R) | 3 | -0.697 | -1.94 | 3.84 |
| H4C8 (H4 clustered histone 8) | 1 | -0.254 | 1.18 | 5.65 |
| H4C8 (H4 clustered histone 8) | 2 | 0.505 | 6.52 | 6.48 |
| H4C8 (H4 clustered histone 8) | 3 | 0.388 | 5.69 | 5.36 |
| TRGV5 (T cell receptor gamma variable 5) | 1 | 0.779 | 8.45 | 7 |
| TRGV5 (T cell receptor gamma variable 5) | 2 | 0.582 | 7.06 | 5.78 |
| TRGV5 (T cell receptor gamma variable 5) | 3 | -0.931 | -3.59 | 1.72 |
| CCDC71 (coiled-coil domain containing 71) | 1 | 0.117 | 3.79 | 6.23 |
| CCDC71 (coiled-coil domain containing 71) | 2 | -0.598 | -1.24 | 4.05 |
| CCDC71 (coiled-coil domain containing 71) | 3 | 1.03 | 10.2 | 5.39 |
| RDH14 (retinol dehydrogenase 14) | 1 | 0.132 | 3.9 | 5.64 |
| RDH14 (retinol dehydrogenase 14) | 2 | 0.651 | 7.55 | 7.02 |
| RDH14 (retinol dehydrogenase 14) | 3 | -0.759 | -2.37 | 4.66 |
| FOCAD (focadhesin) | 1 | 1.68 | 14.8 | 8.91 |
| FOCAD (focadhesin) | 2 | 0.617 | 7.31 | 7.35 |
| FOCAD (focadhesin) | 3 | -0.428 | -0.0445 | 3.18 |
| NINJ2 (ninjurin 2) | 1 | 3.06 | 24.5 | 11.3 |
| NINJ2 (ninjurin 2) | 2 | 2.49 | 20.5 | 13.3 |
| NINJ2 (ninjurin 2) | 3 | 3.65 | 28.6 | 16.8 |
| CIAO3 (cytosolic iron-sulfur assembly component 3) | 1 | 1.28 | 12 | 9.8 |
| CIAO3 (cytosolic iron-sulfur assembly component 3) | 2 | -1.05 | -4.43 | 2.62 |
| CIAO3 (cytosolic iron-sulfur assembly component 3) | 3 | 0.607 | 7.24 | 4.61 |
| SLC67A1 | 1 | -0.096 | 2.29 | 6.07 |
| SLC67A1 | 2 | 1.52 | 13.7 | 10.3 |
| SLC67A1 | 3 | -0.734 | -2.2 | 2.45 |
| ALX3 (ALX homeobox 3) | 1 | -0.485 | -0.447 | 4.91 |
| ALX3 (ALX homeobox 3) | 2 | 0.687 | 7.8 | 7.38 |
| ALX3 (ALX homeobox 3) | 3 | 5.76 (active) | 43.5 | 20.2 |
| LBX1 (ladybird homeobox 1) | 1 | 3.36 | 26.6 | 17 |
| LBX1 (ladybird homeobox 1) | 2 | -0.0877 | 2.35 | 6.72 |
| LBX1 (ladybird homeobox 1) | 3 | 1.2 | 11.4 | 7.54 |
| DHFR (dihydrofolate reductase) | 1 | -1.62 | -8.44 | 1.95 |
| DHFR (dihydrofolate reductase) | 2 | -0.778 | -2.5 | 3.23 |
| DHFR (dihydrofolate reductase) | 3 | -0.603 | -1.28 | 4.53 |
| MUS81 (MUS81 structure-specific endonuclease subunit) | 1 | 1.12 | 10.9 | 9.96 |
| MUS81 (MUS81 structure-specific endonuclease subunit) | 2 | 1.02 | 10.2 | 7.87 |
| MUS81 (MUS81 structure-specific endonuclease subunit) | 3 | -0.414 | 0.0557 | 4.81 |
| H3-3B (H3.3 histone B) | 1 | 0.275 | 4.9 | 5.44 |
| H3-3B (H3.3 histone B) | 2 | 4.44 | 34.2 | 21.3 |
| H3-3B (H3.3 histone B) | 3 | 0.947 | 9.63 | 7.61 |
| IRX1 (iroquois homeobox 1) | 1 | 0.707 | 7.94 | 7.11 |
| IRX1 (iroquois homeobox 1) | 2 | -0.441 | -0.132 | 4.3 |
| IRX1 (iroquois homeobox 1) | 3 | 2.12 | 17.9 | 13.1 |
| PLEKHO1 (pleckstrin homology domain containing O1) | 1 | 0.738 | 8.16 | 6.97 |
| PLEKHO1 (pleckstrin homology domain containing O1) | 2 | -0.978 | -3.91 | 3.07 |
| PLEKHO1 (pleckstrin homology domain containing O1) | 3 | 1.74 | 15.2 | 8.05 |
| PSMD5 (proteasome 26S subunit, non-ATPase 5) | 1 | -0.177 | 1.72 | 5.71 |
| PSMD5 (proteasome 26S subunit, non-ATPase 5) | 2 | 0.0596 | 3.39 | 5.56 |
| PSMD5 (proteasome 26S subunit, non-ATPase 5) | 3 | 1.31 | 12.2 | 7.75 |
| OGFRP1 (opioid growth factor receptor pseudogene 1) | 1 | -0.731 | -2.18 | 2.46 |
| OGFRP1 (opioid growth factor receptor pseudogene 1) | 2 | -0.0206 | 2.82 | 5.84 |
| OGFRP1 (opioid growth factor receptor pseudogene 1) | 3 | 1.34 | 12.4 | 8.03 |
| AACS (acetoacetyl-CoA synthetase) | 1 | -0.594 | -1.21 | 3.78 |
| AACS (acetoacetyl-CoA synthetase) | 2 | -0.0735 | 2.45 | 6.66 |
| AACS (acetoacetyl-CoA synthetase) | 3 | -0.773 | -2.47 | 3.47 |
| TNFRSF10D (TNF receptor superfamily member 10d) | 1 | -0.388 | 0.234 | 5.35 |
| TNFRSF10D (TNF receptor superfamily member 10d) | 2 | 0.929 | 9.5 | 8.11 |
| TNFRSF10D (TNF receptor superfamily member 10d) | 3 | -0.259 | 1.14 | 5.06 |
| ZMYND10 (zinc finger MYND-type containing 10) | 1 | -0.763 | -2.4 | 1.94 |
| ZMYND10 (zinc finger MYND-type containing 10) | 2 | 0.897 | 9.28 | 10.1 |
| ZMYND10 (zinc finger MYND-type containing 10) | 3 | -0.698 | -1.94 | 3.02 |
| RPS29P3 (ribosomal protein S29 pseudogene 3) | 1 | -0.128 | 2.07 | 4.42 |
| RPS29P3 (ribosomal protein S29 pseudogene 3) | 2 | 2.43 | 20.1 | 10.5 |
| RPS29P3 (ribosomal protein S29 pseudogene 3) | 3 | 1.42 | 13 | 6.93 |
| SNRPD1 (small nuclear ribonucleoprotein D1 polypeptide) | 1 | 0.118 | 3.8 | 5.21 |
| SNRPD1 (small nuclear ribonucleoprotein D1 polypeptide) | 2 | 2.71 | 22 | 13.1 |
| SNRPD1 (small nuclear ribonucleoprotein D1 polypeptide) | 3 | 1.61 | 14.3 | 9.45 |

Reformatted: results already given.
target	reagent no.	G2 robust z-score	G2 cells, % of GMNN control	raw share of cells in G2 (%)
TNR (tenascin R)	1	2.19	18.4	11.1
TNR (tenascin R)	2	-0.33	0.644	5.87
TNR (tenascin R)	3	-0.697	-1.94	3.84
H4C8 (H4 clustered histone 8)	1	-0.254	1.18	5.65
H4C8 (H4 clustered histone 8)	2	0.505	6.52	6.48
H4C8 (H4 clustered histone 8)	3	0.388	5.69	5.36
TRGV5 (T cell receptor gamma variable 5)	1	0.779	8.45	7
TRGV5 (T cell receptor gamma variable 5)	2	0.582	7.06	5.78
TRGV5 (T cell receptor gamma variable 5)	3	-0.931	-3.59	1.72
